Results as given in patent US20150299290A1 (University of Georgia Research Foundation, Inc., priority 2010, published 2015).

Assay: general procedure: Fmoc solid-phase peptide synthesis; Rink amide resin; HMPB-MBHA resin; H-Gly-sulfamylbutyryl Novasyn TG resin; HBTU/HOBt; HATU and PyBOP/HOBt/DIPEA for manual couplings

| Substance | step yield (late stage modification step) [%] | step yield (coupling step) [%] |
| --- | --- | --- |
| Pam3Cys-YAF-Tn | 79 |  |
| Pam3CysSK4G-C-KLFAVWKITYKDT-G-GSTPVS(β-S-GluNAc)SANM |  | 64 |
